Experimental data: PubChem BioAssay AID504791 (Drosophila RNAi Screening Center, 2011)

Purpose: 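Factors in Argonaute-based small RNA production and activity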 (primary screen)
System: Drosophila S2-derived reporter cells
Reagents: long dsRNA against Drosophila genes, about 150-250 ng dsRNA per well (siRNA assay); about 80-120 ng (miRNA assay)
Time to read-out: about 5 days (siRNA assay); about 4 days (miRNA assay)
Conditions: copper sulfate induction of reporters: 25 µM (siRNA assay); 200 mM stated (miRNA assay), 1-2 days before reading
Detection: 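Per-well ratio of Renilla over firefly light, expressed relative to that plate's average ratio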
Hit rule: 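a well was a first-pass pick when its plate-scaled ratio rose above 1.5 (siRNA assay) or 1.6 (miRNA assay), or dropped below 0.6; a gene counted only if two separate dsRNAs agreed on retest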
In all, the deposit lists about 23,000 reagents; shown is a random part of those with a known target gene and a result. Over the whole deposit, 199 (0.86%) were called active. 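Plate-scaled ratios behind the calls are not deposited; printed light signals are raw; many rows marked increased or decreased are still called inactive.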 Reagents against one gene are numbered here. Not stated in the record: the direction of the score.

After knock-down of Or85a the results were stable assay Renilla, run 1 (luminescence) = 7196; stable assay firefly, run 1 (luminescence) = 5.03e5; inactive.
After knock-down of CG14339 the results were stable assay Renilla, run 1 (luminescence) = 8010; stable assay firefly, run 1 (luminescence) = 4.16e5; inactive.
Slik gave stable assay Renilla, run 1 (luminescence) = 8679; stable assay firefly, run 1 (luminescence) = 1.84e6; inactive.
With knock-down of SecCl, the screen gave stable assay Renilla, run 1 (luminescence) = 7135; stable assay firefly, run 1 (luminescence) = 3.32e5; inactive.
For Glut3, the entry reads stable assay Renilla, run 1 (luminescence) = 8017; stable assay firefly, run 1 (luminescence) = 5.42e5; inactive.
CG4627 gave stable assay Renilla, run 1 (luminescence) = 6595; stable assay firefly, run 1 (luminescence) = 3.16e5; inactive.
After knock-down of Tmem131, the screen gave stable assay Renilla, run 1 (luminescence) = 9210; stable assay firefly, run 1 (luminescence) = 3.17e5; inactive.
Knock-down of CG14053 came out at: stable assay Renilla, run 1 (luminescence) = 5871; stable assay firefly, run 1 (luminescence) = 2.90e5; inactive.
Against CG12811, the values are stable assay Renilla, run 1 (luminescence) = 6879; stable assay firefly, run 1 (luminescence) = 4.27e5; inactive.

An excerpt from above, limited to “stable assay Renilla, run 1 (luminescence)”.
Or85a	7196
CG14339	8010
Slik	8679

Continued.
CG13538 scored stable assay Renilla, run 1 (luminescence) = 6242; stable assay firefly, run 1 (luminescence) = 3.51e5; inactive.
Against mst the deposit lists stable assay Renilla, run 1 (luminescence) = 6362; stable assay firefly, run 1 (luminescence) = 4.65e5; inactive.
Ctl1 gave stable assay Renilla, run 1 (luminescence) = 6523; stable assay firefly, run 1 (luminescence) = 4.78e5; inactive.
mRpL27 showed stable assay Renilla, run 1 (luminescence) = 4536; stable assay firefly, run 1 (luminescence) = 4.36e5; inactive.
CG15930 showed stable assay Renilla, run 1 (luminescence) = 6134; stable assay firefly, run 1 (luminescence) = 4.43e5; inactive.
After knock-down of Tomosyn #1, the screen gave stable assay Renilla, run 1 (luminescence) = 5263; stable assay firefly, run 1 (luminescence) = 2.11e5; inactive.
Knock-down of Tomosyn #2 gave: stable assay Renilla, run 1 (luminescence) = 4472; stable assay firefly, run 1 (luminescence) = 4.88e5; inactive.
After knock-down of Tomosyn #3 the results were stable assay Renilla, run 1 (luminescence) = 7284; stable assay firefly, run 1 (luminescence) = 3.63e5; inactive.
After knock-down of Tomosyn #4, the record shows stable assay Renilla, run 1 (luminescence) = 4639; stable assay firefly, run 1 (luminescence) = 4.78e5; inactive.
Knock-down of CG11617 #1 gave: stable assay Renilla, run 1 (luminescence) = 6946; stable assay firefly, run 1 (luminescence) = 3.88e5; inactive.
Against CG11617 #2 the deposit lists stable assay Renilla, run 1 (luminescence) = 10581; stable assay firefly, run 1 (luminescence) = 6.00e5; inactive.
Depletion of CG9360 resulted in: stable assay Renilla, run 1 (luminescence) = 5132; stable assay firefly, run 1 (luminescence) = 4.74e5; inactive.
Against CG31606, the values are stable assay Renilla, run 1 (luminescence) = 5024; stable assay firefly, run 1 (luminescence) = 3.46e5; inactive.
With knock-down of Ude the results were stable assay Renilla, run 1 (luminescence) = 7498; stable assay firefly, run 1 (luminescence) = 2.80e5; inactive.
Knock-down of CG17294 resulted in: stable assay Renilla, run 1 (luminescence) = 11823; stable assay firefly, run 1 (luminescence) = 1.40e6; inactive.
Pex5 gave stable assay Renilla, run 1 (luminescence) = 7818; stable assay firefly, run 1 (luminescence) = 4.27e5; inactive.
After knock-down of lncRNA:CR31044, the record shows stable assay Renilla, run 1 (luminescence) = 3896; stable assay firefly, run 1 (luminescence) = 3.72e5; inactive.
After knock-down of Seipin the results were stable assay Renilla, run 1 (luminescence) = 6571; stable assay firefly, run 1 (luminescence) = 3.81e5; inactive.
Silencing of CG14960 gave: stable assay Renilla, run 1 (luminescence) = 4776; stable assay firefly, run 1 (luminescence) = 3.59e5; inactive.
